# Values quoted from earlier work, collected in patent US8017618B2, “Antifolate agent combinations in the treatment of cancer” (Tracon Pharmaceuticals, Inc., priority 2006, dated 2011).
# Some of these results come from one statement about several compounds together.
# Settings: oral administration; cited from earlier work
row,SMILES,bioavailability (oral)
1,CC(=O)O[C@H]1C(=O)[C@@]2(C)[C@H]([C@H](OC(=O)c3ccccc3)[C@]3(O)C[C@H](OC(=O)[C@H](O)[C@@H](NC(=O)c4ccccc4)c4ccccc4)C(C)=C1C3(C)C)[C@]1(OC(C)=O)CO[C@@H]1C[C@@H]2O [paclitaxel],less than 50%
2,Cc1nc2ccc(CN(C)c3ccc(C(=O)N[C@@H](CCC(=O)O)C(=O)O)s3)cc2c(=O)[nH]1 [raltitrexed],less than 50%
3,CC[C@@]1(O)C(=O)OCc2c1cc1n(c2=O)Cc2cc3c(CN(C)C)c(O)ccc3nc2-1 [topotecan],less than 50%
4,CC[C@]1(O)C[C@@H]2CN(CCc3c([nH]c4ccccc34)[C@@](C(=O)OC)(c3cc4c(cc3OC)N(C)[C@H]3[C@@](O)(C(=O)OC)[C@H](OC(C)=O)[C@]5(CC)C=CCN6CC[C@]43[C@@H]65)C2)C1 [vinblastine],less than 50%
5,CC[C@]1(O)C[C@H]2CN(CCc3c([nH]c4ccccc34)[C@@](C(=O)OC)(c3cc4c(cc3OC)N(C=O)[C@H]3[C@@](O)(C(=O)OC)[C@H](OC(C)=O)[C@]5(CC)C=CCN6CC[C@]43[C@@H]65)C2)C1 [vincristine],less than 50%
